# Values quoted from earlier work as cited in patent publication US11737985B2 (priority 2013, dated 2023).
# What was measured:
# hNKCC1a = molecular target: T1, hNKCC1a (Homo sapiens, UniProt P55011); details: cited from earlier work
# T1 sequence (P55011 1-1212): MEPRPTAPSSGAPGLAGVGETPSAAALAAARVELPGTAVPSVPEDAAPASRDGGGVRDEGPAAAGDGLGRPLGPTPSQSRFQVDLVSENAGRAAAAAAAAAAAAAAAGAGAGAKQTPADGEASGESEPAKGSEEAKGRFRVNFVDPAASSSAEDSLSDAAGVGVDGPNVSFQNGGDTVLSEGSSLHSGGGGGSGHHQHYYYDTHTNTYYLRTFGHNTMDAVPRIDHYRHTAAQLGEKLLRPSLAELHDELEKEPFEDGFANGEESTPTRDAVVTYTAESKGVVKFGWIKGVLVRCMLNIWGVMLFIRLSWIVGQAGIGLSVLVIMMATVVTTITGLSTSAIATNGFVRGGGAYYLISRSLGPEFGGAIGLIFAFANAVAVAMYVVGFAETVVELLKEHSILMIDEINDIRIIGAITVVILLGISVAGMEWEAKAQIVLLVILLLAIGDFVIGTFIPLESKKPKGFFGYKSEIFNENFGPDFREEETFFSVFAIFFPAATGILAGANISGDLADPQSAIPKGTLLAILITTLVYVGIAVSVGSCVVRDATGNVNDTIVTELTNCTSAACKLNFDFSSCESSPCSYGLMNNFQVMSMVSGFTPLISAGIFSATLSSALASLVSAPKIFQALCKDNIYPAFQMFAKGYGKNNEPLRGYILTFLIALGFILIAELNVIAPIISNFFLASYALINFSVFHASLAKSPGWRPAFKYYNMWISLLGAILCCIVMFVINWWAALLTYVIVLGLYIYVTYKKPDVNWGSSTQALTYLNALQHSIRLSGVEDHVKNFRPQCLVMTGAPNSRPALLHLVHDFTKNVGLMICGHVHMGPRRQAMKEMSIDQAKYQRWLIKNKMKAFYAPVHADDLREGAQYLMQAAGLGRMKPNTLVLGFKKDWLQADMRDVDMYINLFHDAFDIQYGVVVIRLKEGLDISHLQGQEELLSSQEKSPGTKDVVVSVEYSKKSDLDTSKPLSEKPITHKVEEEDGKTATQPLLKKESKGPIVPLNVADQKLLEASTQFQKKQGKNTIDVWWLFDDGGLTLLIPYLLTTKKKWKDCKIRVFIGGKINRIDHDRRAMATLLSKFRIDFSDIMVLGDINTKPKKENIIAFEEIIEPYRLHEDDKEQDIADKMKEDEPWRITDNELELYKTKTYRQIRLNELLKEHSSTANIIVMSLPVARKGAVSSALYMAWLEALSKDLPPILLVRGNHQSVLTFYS
# hNKCC1b = molecular target: T2, hNKCC1b (Homo sapiens, UniProt P55011); details: cited from earlier work
# T2 sequence (P55011 1-1196 isoform P55011-3): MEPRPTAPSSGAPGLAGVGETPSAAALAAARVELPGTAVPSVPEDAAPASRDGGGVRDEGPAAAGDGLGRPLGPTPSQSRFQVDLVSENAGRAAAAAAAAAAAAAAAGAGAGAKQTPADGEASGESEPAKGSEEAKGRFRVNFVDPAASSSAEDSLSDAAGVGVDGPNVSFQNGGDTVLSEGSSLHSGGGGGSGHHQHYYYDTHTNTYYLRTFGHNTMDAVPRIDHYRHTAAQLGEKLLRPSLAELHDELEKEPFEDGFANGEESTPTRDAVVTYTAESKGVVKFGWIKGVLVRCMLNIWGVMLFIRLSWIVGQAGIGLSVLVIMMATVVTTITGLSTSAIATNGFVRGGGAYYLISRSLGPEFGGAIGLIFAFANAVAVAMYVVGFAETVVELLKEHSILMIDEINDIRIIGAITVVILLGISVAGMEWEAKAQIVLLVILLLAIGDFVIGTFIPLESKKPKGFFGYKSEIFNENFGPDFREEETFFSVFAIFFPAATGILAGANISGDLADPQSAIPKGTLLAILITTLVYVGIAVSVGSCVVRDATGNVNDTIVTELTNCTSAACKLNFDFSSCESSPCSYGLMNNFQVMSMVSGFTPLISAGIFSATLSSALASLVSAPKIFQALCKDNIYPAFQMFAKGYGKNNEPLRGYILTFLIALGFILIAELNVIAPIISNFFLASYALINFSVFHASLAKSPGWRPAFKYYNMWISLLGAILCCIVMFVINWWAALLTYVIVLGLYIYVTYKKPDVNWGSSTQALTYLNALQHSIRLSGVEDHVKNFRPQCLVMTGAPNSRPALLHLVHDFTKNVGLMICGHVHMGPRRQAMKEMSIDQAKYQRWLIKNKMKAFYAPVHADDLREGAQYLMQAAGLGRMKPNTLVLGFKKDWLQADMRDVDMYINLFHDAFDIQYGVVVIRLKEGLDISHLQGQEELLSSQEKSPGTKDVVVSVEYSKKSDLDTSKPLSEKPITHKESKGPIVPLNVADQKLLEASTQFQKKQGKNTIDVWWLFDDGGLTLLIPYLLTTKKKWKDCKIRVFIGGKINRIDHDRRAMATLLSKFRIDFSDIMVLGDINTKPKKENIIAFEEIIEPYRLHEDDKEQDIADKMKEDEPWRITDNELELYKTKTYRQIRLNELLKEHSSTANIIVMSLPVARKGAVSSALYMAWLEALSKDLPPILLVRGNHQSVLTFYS
smiles,measurement,setting,value
NS(=O)(=O)c1cc(C(=O)O)c(NCc2ccco2)cc1Cl [Furosemide],IC50,hNKCC1a,5.2 µM
same,IC50,hNKCC1b,5.8 µM
